Holding throughout (experiment): EMSA
A general note: Mobility shift assays separate free from complexed probe on a gel.

The subject of data set [1] is TNF-alpha ribozyme-binding protein(s) in cytoplasmic extract of HL60 cells (Homo sapiens). Conditions: protein in an extract.
The test system of data set [2] is TNF-alpha ribozyme-binding protein(s) in cytoplasmic extract of PBMN cells (major one identified as GAPDH) (Homo sapiens). The conditions noted are these: protein in an extract.
For data set [3], the system named is TNF-alpha ribozyme-binding protein(s) in cytoplasmic extract of WH164 cells. The conditions noted are these: protein in an extract; label: 32P; variant of TNF-alpha ribozyme II.
[4] abbreviates: label: 32P, variant of TNF-alpha ribozyme II.

Here are results for five sequences from patent US5864028.

Construct, isoform or probe ends are uncertain for at least one entry. Where cells or extracts were used, other partners may take part. For some assays here: A negative result means that nothing was seen under these conditions.

As for “GAGUACUAAGAUGAUCUCUGAUGAGUCCGUGAGGACGAAACUGCCUGGUCUAG [TNF-alpha ribozyme B]”, the binding result in data set [1] (label: 32P internal) is reported as “binds”. Consider “GCUGAUGAGUCCGUGAGGACGAAACUGCCUGGUACUAAAUU [5' truncated TNF-alpha ribozyme]”, for which the binding result in data set [2] (weak complex not always detected, label: 32P, variant of TNF-alpha ribozyme II) is reported as “no binding”. For the sequence “GUAAGAUGAUCUCUGAUGAGUCCGUGAGGAAAAAGACUUAGUGCAAUGCAACUGAUGAGUCCGUGAGGACGAAACAGGAGUUGCGAAUU [IL-2-PB-Rz]”, the binding result in data set [2] (bound strongly in crude extracts) was “binds”. Take “GUAAGAUGAUCUCUGAUGAGUCCGUGAGGACGAAACUGCCUGAAUU [TNF-alpha ribozyme II]”: the binding result in data set [1] (not inhibited by tRNA or poly(dC)(dI), label: 32P internal) was “binds”; in data set [2] (label: 32P internal), “binds”. For the sequence “GUAAGAUGAUCUCUGAUGAGUCCGUGAGGACGAAGAAUU [3' truncated TNF-alpha ribozyme]”, the binding result in data set [1] (setting [4]), in data set [3] and in data set [2] (setting [4]) was “binds” throughout.
